# According to PubChem BioAssay AID1347426 (Functional Genomics Laboratory (NCATS/FGL), 2020):
# Out of some 31,000 sequences screened, about 1,400 (4.5%) were called active.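 How the source made its calls: active means median seed-adjusted z-score above 1 or below -1; inactive means the rest.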 The list shows a part of the results.
# Assay: Novel Modifiers of Survival Motor Neuron (SMN) Protein: Gene Identification via Genome-wide siRNA Screen;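 further: luminescence tracks full-length SMN protein made from the SMN2 reporter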
# Details: HEK293T SMN2-luciferase reporter, siRNA knockdown, 72 h; actives lie on both sides
# Outline: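 Steps: spot 1 pmol siRNA, add Lipofectamine RNAiMax in serum-free DMEM, seed HEK293T SMN2–luciferase reporter cells; incubate 72 h at 37 °C; add ONE-Glo; normalize luminescence to control siRNA, log10, MAD. Candidates: |MAD| > 1.0.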
row,Sequence,median seed-adjusted z-score
1,CUGGCUACGUGAAUGUGCATT against ZDHHC12,inactive: -0.0312
2,CCAUUGUCAUUUCAACAGATT against IMPG1,inactive: -0.252
3,CGACGAUUGAAAGUGUUGATT against SERPINB12,inactive: -0.525
4,GAAGAACAACUAUAAGCAUTT against POU1F1,inactive: 0.5
5,CCAAUAUGCUAAAUAGGUATT against GRIN2B,inactive: 0.0402
6,CCAGGAGCGAUAACAGUAATT against DAZAP1,inactive: 0
7,GGAAUACCAACUUCAGAAATT against GNG12,inactive: 0.331
8,CUGUUAAGAUUGUGGAAGATT against AKAP14,inactive: 0.136
9,GCUAAUGAAGAAUACCAUUTT against MTHFD2,inactive: -0.146
10,GGGCCGAUGUUCUCAGGAATT against TK1,inactive: -0.0562
11,GGGAUAUAUUGACUUUGAATT against PCDHA4,inactive: -0.268
12,AAUCAUCUGUUUUUAAACATT against RABL2B,inactive: 0.454
13,GGGACGAUAUUUUAUGCAUTT against AHRR,inactive: -0.636
14,UAUUGAUUCAGCAUACUUATT against AKR1CL1,inactive: 0.488
15,CUAGGUAUAUGGACUUAAATT against MAPK6,inactive: -0.156
16,GGAUGAACAUUUUAGGAUUTT against SLC1A4,inactive: 0.209
17,CACUGUAACUUGCAGGUUUTT against RDH10,inactive: -0.28
18,GGAUUCAUGUUGUCUACAATT against ADAMTS3,inactive: 0
19,GAACGAAAGAUCAUAGAAUTT against ITSN1,inactive: 0.00218
20,CAAGAUGUAUGGUGAGUAUTT against FGD1,inactive: 0.414
21,GAUUGUCAAUGAACAGUUUTT against ACADVL,inactive: -0.476
22,GCAAGCUGUAGAACACGUATT against ADRBK2,inactive: 0.148

row,Sequence,median seed-adjusted z-score
1,CAUAUGAUCCAGACAAGAATT against ZNF425,inactive: 0.0841
2,CUAGAGCUCUACUUACAGATT against GSTO1,inactive: 0.188
3,CAUCUUCUUUAUUCUAGUUTT against SLC6A9,inactive: 0.241
4,GCAUCAGGUGAACAUCAAATT against TRIM16,inactive: 0.345
5,GCCUAUUCAGAACACCAAUTT against TBP,active: -1.25
6,CCAACAUUGUCGUCCGCGATT against CLDN5,inactive: 0
7,GGCUGUACAUCGAUAGCUATT against PGM1,inactive: 0.136
8,CGAGUCCUGUGGUUAUGAATT against ANKS1A,inactive: -0.0165
9,GUUGCAAACUUAUCGAGGATT against CCT2,inactive: -0.0508
10,GAGGAAUUAUGACUACUAUTT against BPNT1,inactive: 0.0844
11,UGCGCAACCUUAAGAACAATT against PRAF2,inactive: -0.326
12,GCUUGACUGUGAGUGUACATT against RAD54B,inactive: -0.257
13,GGUGUCAACUCGUUCCAGATT against DPYSL5,inactive: 0.0624
14,GCCUGGAGAGUUCACUGGATT against APBB3,inactive: -0.299
15,ACACUCUCGCAGACCCAUUTT against HIF3A,inactive: -0.0855
16,CUUUAGCCGCAAACCCAUATT against ZNF772,inactive: 0.817
17,ACCAGCGCAUGGACAGUUATT against SOX2,inactive: 0.0559
18,CGGCCUUCAUCGCAGUACATT against SLC7A5,inactive: 0.00397
19,GAAAGAUUUCUGAAUCGUATT against B3GALTL,inactive: -0.259
20,GGCUACUAGAUGCUCCUGATT against ZMAT5,inactive: 0.292
21,GAAUCGAUUUUGAUAUCGATT against ATMIN,inactive: -0.55
22,AGUCAAAUGUAAUCCGAAATT against ZBTB48,inactive: 0.0461

row,Sequence,median seed-adjusted z-score
1,GUAUGUUGAAGCAAUUAAATT against CDKL4,inactive: 0.13
2,CCUUAACACCUGCAACCGATT against GRHPR,inactive: 0.475
3,CAAUAGUACCUCACCGGAATT against SLC28A2,inactive: -0.076
4,GAACUCCAGAGAUCAAUAATT against IL7R,inactive: 0
5,UCUACAACAUGGUAGUGCATT against NMUR1,inactive: -0.265
6,GAGCUUCCGUAGUAGAGCATT against ZNF225,inactive: 0.0761
7,CGCUGCUGGUCAUCAAGAUTT against PTGES,inactive: -0.0851
8,GAAUGUACUAAGUAUGGAATT against ZNF630,inactive: -0.533
9,GGACUGCCCUCAUAUGAAATT against ELMO1,inactive: -0.00404
10,CAUCCACACUUCUCCAGAATT against HK1,inactive: -0.129
11,CCAACUCCAUGUCCGAUGATT against ITGB4,inactive: -0.226
12,GCUGGACCCUUAUUACCGATT against MTMR3,inactive: 0.281
13,CCUUGUUCAGUCUAGAGGATT against CLCN6,inactive: -0.136
14,AGACACCUCGGAUAACGAATT against HOXC10,inactive: 0.000966
15,CCAGCUUAGUUCAAUAUGATT against GABRA4,inactive: 0.549
16,GCUCGUAGUUGGGAUAACATT against FRAP1,active: -1.02
17,UGACCAAGUUUGAGGCUAATT against NAT9,inactive: -0.657
18,GGCGGGAUGUGAUGACUAUTT against STYK1,inactive: 0.106
19,GCAAUUAAUUCACUAAGCUTT against HS3ST3B1,inactive: 0.937
20,GGACUCUUGUAGAUAAUGATT against RSPRY1,inactive: 0.0814
21,GAACUUUCCUAGGUGAUUATT against PEMT,inactive: 0.0218
22,AAUUAAAGGAGAUCCACUATT against ALDH3B2,inactive: 0.171

# Quoted at random: two records from the list, in no set order.
row,Sequence,median seed-adjusted z-score
17,UGACCAAGUUUGAGGCUAATT against NAT9,inactive: -0.657
6,GAGCUUCCGUAGUAGAGCATT against ZNF225,inactive: 0.0761

# Next results:

row,Sequence,median seed-adjusted z-score
1,GGAUAGAAUAUGAUACCUUTT against FH,inactive: 0.182
2,GGAGUUCGAUGAGACAACATT against FABP3,inactive: -0.0786
3,GCAGCAAACUGACGGAGAATT against PCTK3,inactive: 0
4,CCAGAUCAUCUGGACCAUATT against PDCD2,inactive: -0.232
5,GCUCCUCAGUUGAUCAAGATT against DKC1,inactive: -0.203
6,GCCCAGCAGAUAAUCCAUUTT against GTF2H4,inactive: -0.261
7,CAACAGAUGUUAGCCCUUUTT against ZNF75D,inactive: 0
8,GAGAAGCAGCAGUACAUGATT against HMG20B,inactive: 0.231
9,CGAUGUGGUUCGAGGCUAUTT against B9D1,inactive: -0.161
10,CCAUCUACGUCAUCUAUAATT against SLC6A2,inactive: 0
11,GGAUAGGUGCCUUUCGUCATT against TLR3,inactive: 0.0615
12,UGAUCUUCAUCGUCAAGGATT against MCM5,inactive: 0.126
13,CCAAGUCAUUCUCACCUAATT against ATP6V1G2,inactive: -0.664
14,GAACCUCCUUCGGGAUAAATT against CAB39L,inactive: 0
15,GGGUAAUCCUCCCAAAUCATT against CDH2,inactive: -0.235
16,GAGUUGCAAUUGUCAUAUATT against ADAM20,inactive: 0.0167
17,GGAGGCUUCGAUGAAGAAATT against ASIP,inactive: -0.23
18,GCAGAAGUGGGAGCGAAAATT against PRSS23,inactive: -0.77
19,GGGCGAAUACGUGACGAUATT against BEST4,inactive: -0.207
20,GGACCUGCAUAUGAAAGUATT against PCDH8,active: -1.03
21,CGAUAUCAAGUGCACCAAATT against CAD,active: 2.37
22,GCAUCACCAUUGCUUGGAATT against STAT5B,inactive: 0

row,Sequence,median seed-adjusted z-score
1,CCGCGACAAGCAUAACGAATT against B4GALT2,inactive: -0.0367
2,GGGUUACCCUGGUCAUUAATT against ZNHIT2,inactive: -0.339
3,GCCUAGGAGUUAUCCUCUATT against MARK2,inactive: 0.664
4,AGUUACCUACGUCAACCUATT against LRIT1,inactive: -0.611
5,AGCUAGUACUAAUGAAUUUTT against KCNC2,inactive: 0.3
6,GCAAAGAUGUUGAGAAGGATT against ZNF549,inactive: 0.0114
7,GGAUUGGGCUAAGAAGUAUTT against CYP46A1,inactive: -0.00752
8,GGGUUAUAGAUCAAAAGAATT against OLA1,inactive: -0.408
9,GUAGGACCCUAAUAUCGAUTT against TEP1,inactive: -0.495
10,GGACAUGCAGCAGACCUAUTT against ZC3H7B,inactive: -0.093
11,AGAUAAAUGCCGACCCACATT against CDK5R1,inactive: 0.373
12,CAGUACUACGUGAAACUGATT against BAT1,active: -1.49
13,ACGGCGACUUUGUCAGGUATT against SOLH,inactive: -0.791
14,CGAGCGCGUAUUAACGAGATT against HES4,inactive: 0.705
15,CGACCGCUGUAAGGAGGUATT against MAP1LC3A,inactive: 0
16,GUAACAAAAUUGAUCUGGATT against RIT2,inactive: 0.253
17,GGCUGAUUACGUUCGGGAATT against MYL2,inactive: -0.0369
18,GAACUGUGCCUAUUCCGAATT against LIG3,inactive: -0.0498
19,GGCUAACCAGCGAAAUAUATT against DNMT3L,inactive: 0.0651

# In another format: entries from further up.
row | Sequence | median seed-adjusted z-score
15 | CGACCGCUGUAAGGAGGUATT against MAP1LC3A | inactive: 0
16 | GUAACAAAAUUGAUCUGGATT against RIT2 | inactive: 0.253
17 | GGCUGAUUACGUUCGGGAATT against MYL2 | inactive: -0.0369
18 | GAACUGUGCCUAUUCCGAATT against LIG3 | inactive: -0.0498
19 | GGCUAACCAGCGAAAUAUATT against DNMT3L | inactive: 0.0651
